Laboratory results published in the supplement of paper PMC12823440, “Inhibitors supercharge kinase turnover through native proteolytic circuits” (Nature, 2025).
Where a name gives a salt, the structure may show the parent alone. Some of the results follow. Hit calls seldom repeat between salt and free forms of one compound.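 In K562 cells expressing nanoluciferase-fused kinases, luminescence was recorded at 4 h intervals between 2 and 18 h, normalized as percent of control with DMSO at 100% and a positive control at 0%. A significant (2 sigma) signal drop marks a time point as decreased. The authors' rule for a hit is not shown and takes in more than the number of time points.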

Amino acid sequences for entries named in this document (tags omitted).
UniProt Q9NYA1, whole entry: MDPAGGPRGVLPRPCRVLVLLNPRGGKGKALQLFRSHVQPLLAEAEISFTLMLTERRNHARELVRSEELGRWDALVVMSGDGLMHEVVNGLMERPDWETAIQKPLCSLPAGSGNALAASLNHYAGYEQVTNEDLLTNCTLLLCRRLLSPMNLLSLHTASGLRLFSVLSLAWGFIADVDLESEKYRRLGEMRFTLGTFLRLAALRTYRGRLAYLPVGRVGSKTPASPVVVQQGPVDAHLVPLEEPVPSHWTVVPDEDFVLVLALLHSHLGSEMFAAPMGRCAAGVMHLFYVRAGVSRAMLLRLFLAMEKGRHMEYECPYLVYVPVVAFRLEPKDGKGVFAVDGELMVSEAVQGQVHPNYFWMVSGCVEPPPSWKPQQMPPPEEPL

Molecular target: SPHK1 (UniProt Q9NYA1)
Test: number of time points (of 5) at which kinase-Nluc abundance scored as decreased, DMSO-normalised (count); higher = more persistent destabilization
Conditions: K562; 2-18 h

Compound | number of time points
Cc1cc(-n2c(=O)ccc3c[nH]c4nccc-4c32)ccc1F (10 µM) | 0
CO[C@H]1CC[C@H](N2C(=O)CNc3ncc(-c4ccc(C(C)(C)O)nc4)nc32)CC1 (2.5 µM) | 0
COc1cc2c(cc1OC)/C(=C/c1ccc(O)cc1)C(=O)N2 (10 µM) | 0
NCCOc1ccc(Cl)cc1C(=O)Nc1ccc([N+](=O)[O-])cc1Cl [HJC0152 hydrochloride] (2 µM) | 0
CCN(CC)CCOc1ccc(Nc2nc(-c3ccccc3NC(=O)CCN3CCN(C)CC3)nc3ccccc23)cc1 (2.5 µM) | 0
C=CC(=O)N1CCN(C(=O)CNc2cc(I)c(Cl)cc2O)CC1 [K-Ras(G12C) inhibitor 12] (10 µM) | 0
N[C@@H]1CCCN(c2c(/C=C3\SC(=O)NC3=O)cccc2-c2ccccc2)C1 (10 µM) | 0
O=C(Nc1cc(Cl)cc2c1[nH]c1cnccc12)c1cccnc1 (10 µM) | 0
C=C1C(=O)[C@@]23[C@H](O)C[C@@H]4C(C)(C)C(=O)CC[C@@]4(C)[C@@H]2CC[C@@H]1[C@H]3O [Glaucocalyxin A] (2.5 µM) | 0
C[C@@H]1O[C@@H](Oc2cc(O)c3c(=O)c(O[C@@H]4O[C@@H](C)[C@H](O)[C@@H](O)[C@H]4O)c(-c4ccc(O)cc4)oc3c2)[C@H](O)[C@H](O)[C@H]1O [Kaempferitrin] (10 µM) | 0
Cc1c(C(=O)Nc2ccc(Oc3ccnc4[nH]cc(-c5ccccc5)c34)c(F)c2)c(=O)n(-c2ccc(F)cc2)n1C (10 µM) | 0
c1nc2c(NC3CCCCC3)nc(Nc3ccc(N4CCOCC4)cc3)nc2[nH]1 [Reversine] (10 µM) | 0
CN1CCN(c2ccc(Nc3ncc4cc(C#N)c(=O)n(C5CCCC5)c4n3)cc2)CC1 (10 µM) | 0
NC[C@@](O)(c1ccc(Cl)cc1)c1ccc(-c2cn[nH]c2)cc1 (10 µM) | 0
Cc1ccc(-n2nc(C(C)(C)C)cc2NC(=O)Nc2ccc(OCCN3CCOCC3)cc2)cc1 (10 µM) | 0
c1ccc(Cn2c(-c3ccc(OC[C@H](C4CCNCC4)n4c(-c5ccccc5)nc5ccccc54)cc3)nc3ccccc32)cc1 [Deltarasin] (2.5 µM) | 0
C=CC(=O)N1CC[C@@H](Oc2nc(Nc3ccc(N4CCC(N5CCN(C)CC5)CC4)cc3)c(C(N)=O)nc2CC)C1 [Naquotinib (mesylate)] (2.5 µM) | 0
Cc1cc(O)c2c(c1)C(=O)c1cccc(O)c1C2=O [Chrysophanol] (2 µM) | 0
Cc1cc(C(=O)NC(C)(C)C)cc(C#Cc2ccc3c4c(oc3c2)C(C)(C)c2cc(NS(C)(=O)=O)ccc2C4=O)n1 (10 µM) | 0
Nc1nc(NCCNc2ncc(-n3ccnc3)c(-c3ccc(Cl)cc3Cl)n2)ccc1[N+](=O)[O-] (2.5 µM) | 0
Cn1c(CNc2cccc(C(=O)NCc3ccccc3C(F)(F)F)c2)nnc1-c1ccncc1 (10 µM) | 0

As a working copy, part of the list above.
Compound | number of time points
Cc1ccc(-n2nc(C(C)(C)C)cc2NC(=O)Nc2ccc(OCCN3CCOCC3)cc2)cc1 (10 µM) | 0
c1ccc(Cn2c(-c3ccc(OC[C@H](C4CCNCC4)n4c(-c5ccccc5)nc5ccccc54)cc3)nc3ccccc32)cc1 [Deltarasin] (2.5 µM) | 0
